Publication PMC11167047 (Cell Death Discovery, 2024)
pIC50: −log10 of the molar value. Where two headings read alike, the source gives them in different places.

Tested on: Ramos
Test: AlamarBlue viability assay
Format: cell-based
Conditions: Homo sapiens, 24 h, read-out: IC50 (Ramos)

SMILES	pIC50	pIC50 (cytotoxicity)
CC[C@H](CO)Nc1nc(NCc2ccccc2)c2ncn(C(C)C)c2n1 [roscovitine]	4.90	–
CCc1cnn2c(NCc3ccc[n+]([O-])c3)cc(N3CCCC[C@H]3CCO)nc12 [dinaciclib]	–	8.00
